# Laboratory results reported in PubChem BioAssay AID2685 (National Center for Advancing Translational Sciences (NCATS), 2010).
# This is one part of the list. Shown are side measurements of this screen, not its main read-out; they come without a call. Most of these compounds were active or inconclusive in the main read-out, so they are no random draw. Potencies come from curve fits of mixed quality, noted in brackets.
# Test: qHTS Assay for Lipid Storage Modulators in Drosophila S3 Cells;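 for cell number change: cells counted by Cell Tracker Red CMTPX staining in the red channel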
# Settings: BODIPY lipid droplet fluorescence, 18-24 h; for cell number change: measured here: cell count max response, cells fed with added oleic acid
# Summary of the method: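 Drosophila S3 cells got compounds at several concentrations plus oleic acid (400 uM solution). Laser-scanning cytometry with 488 nm excitation read lipid droplets at 500-530 nm and cells at 575-640 nm. Percent activity was relative to 20 uM Triacsin C.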
# [1] = measured here: lipid fluorescence (Fed channel) AC50, cells fed with added oleic acid
# [2] = measured here: cell number channel AC50, cells fed with added oleic acid
SMILES,cell number change,AC50 [1],AC50 [2]
CCOC(=O)CCC(NC(=O)CC(=O)NC(CCC(=O)OCC)C(=O)OCC)C(=O)OCC (configuration not stated),-26.7%,"32.6 µM [falling, partial curve]",–
COc1ccc(-n2c(C)nc3cc(C(=O)N4CCOCC4)ccc32)cc1,–,"2.31 µM [falling, partial curve]",–
C/C(=N\NC(=S)Nc1c(C)cccc1C)c1cc2ccccc2o1,10%,–,–
O=C(CCN1CCN(c2ccccc2)CC1)Nc1cccc(Br)c1,23.6%,"6.51 µM [rising, full curve]",–
Cc1ccc(SCc2c(-c3ccccc3)nn(C)c2Cl)cc1,-15%,"20.6 µM [rising, partial curve]",–
CC1(NC(=O)Nc2ccccc2)CCS(=O)(=O)C1 (configuration not stated),-13.2%,"0.00651 µM [falling, full curve, poor fit]",–
CCn1c(SCC(=O)Nc2oc(-c3ccccc3)c(-c3ccccc3)c2C#N)nnc1-c1ccco1,45.2%,–,"13 µM [rising, partial curve, poor fit]"
CN(C)CCCNc1nc(N)c([N+](=O)[O-])c(NCc2ccccc2)n1,–,–,"1.64 µM [rising, partial curve, poor fit]"
CN(C)CCCN(C(=O)c1cc(Cl)sc1Cl)c1nc2cc3c(cc2s1)OCO3,42.7%,"25.9 µM [rising, partial curve]","29.1 µM [rising, single point]"
CCOC(=O)c1c(C)[nH]c(C(=O)CN2CCOCC2)c1C,–,–,"2.06 µM [rising, partial curve]"
CCCc1nc2n[nH]c(N)c2c2c1CCC2,-8.16%,"2.31 µM [rising, partial curve, poor fit]",–
COC(=O)c1ccc(NC(=O)CNCc2ccncc2)cc1,–,"11.6 µM [falling, partial curve, poor fit]",–
Cc1ccc2oc3c(c(=O)c2c1)C(c1cccc(O)c1)N(c1ccccn1)C3=O (configuration not stated),–,"18.4 µM [falling, partial curve]",–
O=C(NCn1ccc(=O)[nH]c1=S)c1ccccc1,-64.8%,"0.146 µM [falling, full curve, poor fit]","29.1 µM [falling, single point]"
COc1cc(/C=C2\C(=N)N3N=C(S(C)(=O)=O)SC3=NC2=O)cc(OC)c1OCCOc1ccccc1C,-37.8%,"29.1 µM [falling, single point]","29.1 µM [falling, single point]"
Fc1cccc(CCN2CCNC[C@@H]2c2ccccc2)c1,12.8%,"5.8 µM [falling, partial curve, poor fit]","3.26 µM [falling, single point]"
O=C(NCc1ccc2c(c1)OCO2)C1CCCN(S(=O)(=O)c2cccc3nonc23)C1 (configuration not stated),24.1%,"0.731 µM [rising, partial curve, poor fit]","1.16 µM [rising, full curve, poor fit]"
COc1ccccc1-c1n[nH]c2c1[C@H](C)CC[C@H]2C(C)C,-16.7%,"29.1 µM [falling, single point]",–
Cc1cccc(C)c1NC(=S)N/N=C/c1ccc(OCCC(C)C)cc1,-27.4%,"29.1 µM [rising, single point]",–
CCc1cc(=O)[nH]c(SCCc2ccccc2)n1,2.8%,–,–

SMILES,cell number change,AC50 [1],AC50 [2]
COc1ccc(/C=N/Nc2c(Cl)cc(Cl)cc2Cl)cc1CN1CCOCC1,-7.9%,"18.4 µM [falling, single point]",–
Cc1ccc(N2C(=O)CC(Nc3ccc(Cl)c(S(=O)(=O)N(C)C)c3)C2=O)c(C)c1 (configuration not stated),–,"0.116 µM [rising, single point]",–
Cc1ccc(C(=O)/C=C/c2cn(CN3CCN(C)CC3)c3ccccc23)cc1,-69.5%,"0.58 µM [rising, single point]",–
Cn1nc(C(F)(F)F)c(-c2ccc(Br)cc2)c1NC(=O)Nc1ccc(F)cc1F,-55.8%,"29.1 µM [falling, single point]","29.1 µM [falling, single point]"
COc1ccccc1CNC(=O)CN1CCC(NC(=O)c2ccccc2F)CC1,-12.4%,–,–
COc1cccc(N2CCN(c3ccc4nnc(CCC(=O)Nc5ncccc5C)n4n3)CC2)c1,-6.87%,"6.51 µM [falling, single point]",–
COc1ccc(N2C(=O)CC(N(CCc3ccccc3)C(=O)/C=C/C(=O)O)C2=O)cc1 (configuration not stated),–,"0.0058 µM [rising, full curve, poor fit]",–
CCCCCNC(=O)C1CC(=O)OC12CCCCC2 (configuration not stated),31.6%,"32.6 µM [rising, single point]",–
O=C(Nc1cccnc1)c1sc(Nc2ccccc2)nc1-c1ccccc1,–,"4.61 µM [rising, partial curve]",–
Cc1cc(C)n(-c2nc(C)nc(NCc3ccccc3)n2)n1,16.6%,"0.058 µM [rising, full curve]","0.0206 µM [rising, full curve, poor fit]"
Cc1cc2occ(CC(=O)N(C)CC(=O)Nc3cccc(F)c3)c2cc1C,-23.8%,–,–
NC(=O)CC(NC(=O)Cc1cccc2ccccc12)c1ccc(N2CCN(c3ccccc3)CC2)c([N+](=O)[O-])c1 (configuration not stated),16.3%,"7.31 µM [rising, partial curve, poor fit]",–
CCCc1ccc(C(=O)NC(=O)c2ccccc2O)cc1,-53.4%,"2.31 µM [falling, full curve]","5.8 µM [falling, full curve]"
CCCNC(=O)C1CC(c2cccc(F)c2)=NO1 (configuration not stated),35.4%,–,"1.84 µM [rising, partial curve, poor fit]"
Cc1nn(C)c(C(=O)N/N=C/c2ccc(C(F)(F)F)cc2)c1[N+](=O)[O-],-44.2%,"0.58 µM [falling, full curve]","25.9 µM [falling, single point]"
O=C(CSc1nnc(-c2ccc(OC(F)F)cc2)o1)N1CCOCC1,37.8%,"11.6 µM [rising, single point]","14.6 µM [rising, partial curve, poor fit]"
CCC1CCCCN1CCCNC(=O)CN1C(=O)CSc2ccc(S(=O)(=O)N3CCOCC3)cc21 (configuration not stated),3.36%,"6.51 µM [rising, single point]",–
COc1ccc(S(=O)(=O)NCCSC(C)(C)C)cc1,–,"0.13 µM [falling, full curve]",–
CCOC(=O)N1CCN(C(=O)CC(C)S(=O)(=O)c2cc3c(cc2C)NC(=O)CO3)CC1 (configuration not stated),-42.8%,"1.84 µM [falling, partial curve]","29.1 µM [falling, single point]"
O=C(NC1CCSc2ccccc21)c1ccccc1F (configuration not stated),8.62%,–,–

# Part of the list above in order of number of heavy atoms, rising.
SMILES,cell number change,AC50 [1],AC50 [2]
Cc1ccc(SCc2c(-c3ccccc3)nn(C)c2Cl)cc1,-15%,"20.6 µM [rising, partial curve]",–
C/C(=N\NC(=S)Nc1c(C)cccc1C)c1cc2ccccc2o1,10%,–,–
Cc1ccc2oc3c(c(=O)c2c1)C(c1cccc(O)c1)N(c1ccccn1)C3=O (configuration not stated),–,"18.4 µM [falling, partial curve]",–

# Continued.

SMILES,cell number change,AC50 [1],AC50 [2]
COc1ccccc1C(c1nnnn1C(C)C)N1CCN(C(=O)c2ccco2)CC1 (configuration not stated),18.1%,–,–
Clc1ccccc1CN1CCc2sccc2C1,-28.6%,"16.4 µM [rising, single point]",–
O=C(COC(=O)COc1ccccc1)NCCC1=CCCCC1,-19.5%,"1.03 µM [falling, full curve, poor fit]",–
COc1ccc(-c2cc(=Nc3c(C)n(C)n(-c4ccccc4)c3=O)c3ccccc3o2)cc1,23.3%,"0.92 µM [rising, full curve, poor fit]",–
O=C1[C@@H]2C(Cc3ccc(O)cc3)NC3(C(=O)Nc4ccc(F)cc43)[C@@H]2C(=O)N1c1ccc(F)cc1 (some centres not stated),26.9%,"29.1 µM [falling, single point]",–
Clc1ccc2noc(-c3ccccc3)c2c1,-31.6%,–,"4.61 µM [falling, partial curve, poor fit]"
CCOC(=O)C1=C(C)Nc2nc(SCC)[nH]c(=O)c2C1c1ccncc1 (configuration not stated),-2.53%,–,–
CN(C(=O)COC(=O)c1cc(NS(=O)(=O)c2cc([N+](=O)[O-])ccc2Cl)ccc1O)C1CCCCC1,1.5%,"0.259 µM [rising, full curve, poor fit]",–
COCCCNCCC(CCC(C)C)c1ccc2c(c1)OCO2 (configuration not stated),-3.87%,–,–
CCOC(=O)CSc1nc2cccnc2n1C,-17.9%,"10.3 µM [falling, partial curve]",–
CCOc1ccc(CCNC(=O)COC(=O)c2cc(OC)cc(OC)c2)cc1OCC,-59.3%,"29.1 µM [falling, partial curve, poor fit]",–
CCC(C)(C)NC(=O)C(c1cccn1C)N(C(=O)Cn1nnc2ccccc21)c1ccc(OC)cc1OC (configuration not stated),-20%,"10.3 µM [falling, partial curve]",–
CCOC(=O)C1(Cc2cccc(Cl)c2)CCCN(C(=O)CN2C(=O)CSC2=O)C1 (configuration not stated),-25.2%,"29.1 µM [falling, single point]","0.164 µM [falling, full curve, poor fit]"
CC(=NCCc1ccccc1)C1=C(O)CSC1=O,10.1%,"1.84 µM [falling, partial curve]",–
CCc1c(C)nc2ncnn2c1NCCc1ccc(Cl)cc1,-39.6%,"23.1 µM [falling, partial curve]","29.1 µM [falling, single point]"
COC(=O)/C=c1/sc2n(c1=O)CCN=2,1.21%,–,–
COc1ccc(N(CC(=O)N2CCN(C)CC2)S(=O)(=O)c2ccccc2)cc1,-14.5%,–,–
COc1ccc(S(=O)(=O)NCC2CCCO2)c(Cl)c1Cl (configuration not stated),6.61%,"1.16 µM [rising, full curve, poor fit]",–
CN(c1ccc(F)cc1)S(=O)(=O)c1ccc(Cl)c(C(=O)NCC(c2ccco2)N2CCCCC2)c1 (configuration not stated),–,"29.1 µM [falling, single point]","6.51 µM [rising, single point]"
